B1: Q8VIJ6 (protein, UniProt Q8VIJ6 1-699, looked up)
chain: MSRDRFRSRGGGGGGFHRRGGGGGRGGLHDFRSPPPGMGLNQNRGPMGPGPGGPKPPLPPPPPHQQQQQPPPQQPPPQQPPPHQQPPPHQPPHQQPPPPPQESKPVVPQGPGSAPGVSSAPPPAVSAPPANPPTTGAPPGPGPTPTPPPAVPSTAPGPPPPSTPSSGVSTTPPQTGGPPPPPAGGAGPGPKPGPGPGGPKGGKMPGGPKPGGGPGMGAPGGHPKPPHRGGGEPRGGRQHHAPYHQQHHQGPPPGGPGPRTEEKISDSEGFKANLSLLRRPGEKTYTQRCRLFVGNLPADITEDEFKRLFAKYGEPGEVFINKGKGFGFIKLESRALAEIAKAELDDTPMRGRQLRVRFATHAAALSVRNLSPYVSNELLEEAFSQFGPIERAVVIVDDRGRSTGKGIVEFASKPAARKAFERCSEGVFLLTTTPRPVIVEPLEQLDDEDGLPEKLAQKNPMYQKERETPPRFAQHGTFEYEYSQRWKSLDEMEKQQREQVEKNMKDAKDKLESEMEDAYHEHQANLLRQDLMRRQEELRRMEELHSQEMQKRKEMQLRQEEERRRREEEMMIRQREMEEQMRRQREESYSRMGYMDPRERDMRMGGGGTMNMGDPYGSGGQKFPPLGGGGGIGYEANPGVPPATMSGSMMGSDMRTERFGQGGAGPVGGQGPRGMGPGTPAGYGRGREEYEGPNKKPRF
modifications: full-length
B2: P59016 (protein, UniProt P59016 1-617, looked up)
chain: MAFPHRLDAPELPDFSMLKRLARDQLIYLLEQLPGKKDLFIEADLMSPLDRIANVSILKQHEVDKLYKVENKPALSANEQLCFLVRPRIKNMRYIASLVNADKLAGRIRKYKVILSPQKFYACEMVLEEEGVYGDVSCDEWAFSLLPLDVDLLSMELPEFFRDYFLEGDQRWINTVAQALHLLSTLYGPFPNCYGIGRCAKMSYDLWRKLEEEEDSETKGRKPEIGHIFLLDRDVDFVTALCSQVVYEGLVDDTFRIKCGSVDFGPEVTSSDKSLKVLLNAEDKVFSEIRNEHFSNVFGFLSQKARNLQAQYDRRRGMDIKQMKNFVSQELKGLKQEHRLLSLHIGACESIMKKKTKQDFQELIKTEHALLEGFNIRESTSYIEEHIDRQVSPIESLRLMCLLSITENGLIPKDYRSLKTQYLQSYGPEHLLTFSNLRRAGLLTEQAPGDTLTAVESKVSKLVTDKAAGKITDAFSSLAKRSNFRAISKKLNLIPRVDGEYDLKVPRDMAYVFSGAYVPLSCRIIEQVLDRRSWQGLDEVVRLLNCSEFAFTDTAKEDKASSESLRLILVVFLGGCTFSEISALRFLGREKGYRFIFLTTAVTNSARLMEAMSEVKS
modifications: full-length
B3: Q9WU78 (protein, UniProt Q9WU78 1-869, looked up)
chain: MASFIWVQLKKTSEVDLAKPLVKFIQQTYPSGGEEQAQYCRAAEELSKLRRSALGRPLDKHEGALETLLRYYDQICSIEPKFPFSENQICLTFTWKDAFDKGSLFGGSVKLALASLGYEKSCVLFNCAALASQIAAEQNLDNDEGLKTAAKQYQFASGAFLHIKDTVLSALSREPTVDISPDTVGTLSLIMLAQAQEVFFLKATRDKMKDAIIAKLANQAADYFGDAFKQCQYKDTLPKEVFPTLAAKQCIMQANAEYHQSILAKQQKKFGEEIARLQHAAELIKNVASRYDEYVNVKDFSDKINRALTAAKKDNDFIYHDRVPDLKDLDPIGKATLVKPTPVNVPVSQKFTDLFEKMVPVSVQQSLAVFSQRKADLVNRSIAQMREATTLANGVLASLNLPAAIEDVSGDTVPQSILTKSTSVVEQGGIQTVDQLIKELPELLQRNREILEESLRLLDEEEATDNDLRAKFKDRWQRTPSNDLYKPLRAEGAKFRAVLDKAVQADGQVKERYQSHRDTIALLCKPEPELNAAIPSANPAKTMQGSEVVSVLKSLLSNLDEIKKERESLENDLKSVNFDMTSKFLTALAQDGVINEEALSVTELDRIYGGLTSKVQESLKKQEGLLKNIQVSHQEFSKMKQSNNEANLREEVLKNLATAYDNFVELVANLKEGTKFYNELTEILVRFQNKCSDIVFARKTERDELLKDLQQSIAREPSAPSIPPPAYQSSPAAGHAAAPPTPAPRTMPPAKPQPPARPPPPVLPANRVPPASAAAAPAGVGTASAAPPQTPGSAPPPQAQGPPYPTYPGYPGYCQMPMPMGYNPYAYGQYNMPYPPVYHQSPGQAPYPGPQQPTYPFPQPPQQSYYPQQ
modifications: full-length
B4: Q64674 (protein, UniProt Q64674 1-302, looked up)
chain: MEPGPDGPAAPGPAAIREGWFRETCSLWPGQALSLQVEQLLHHRRSRYQDILVFRSKTYGNVLVLDGVIQCTERDEFSYQEMIANLPLCSHPNPRKVLIIGGGDGGVLREVVKHPSVESVVQCEIDEDVIEVSKKFLPGMAVGFSSSKLTLHVGDGFEFMKQNQDAFDVIITDSSDPMGPAESLFKESYYQLMKTALKEDGILCCQGECQWLHLDLIKEMRHFCKSLFPVVDYAYCSIPTYPSGQIGFMLCSKNPSTNFREPVQQLTQAQVEQMQLKYYNSDMHRAAFVLPEFTRKALNDIS
modifications: full-length
B5: Q9CZD3 (protein, UniProt Q9CZD3 1-729, looked up)
chain: MPCLLPSLLRATRAALPLLSPPRVVAASASQRLLSAPAQPAASRSSMDSAEELLAPLRLAVRQQGDFVRKLKEDKAPQVDVDRAVAELKARKRVLEAKELALQPKDDIVDRAKMEDTLKRRFFYDQAFAIYGGVSGLYDFGPVGCALKNNIIQAWRQHFIQEEQILEIDCTMLTPEPVLKTSGHVDKFADFMVKDVKNGECFRADHLLKAHLQKLMSDKKCSAEKKSEMESVLAQLDNYGQQELADLFVNYNVKSPTTGNDLSPPVPFNLMFQTFIGPGGNMPGYLRPETAQGIFLNFKRLLEFNQGKLPFAAAQIGNSFRNEISPRSGLIRVREFTMAEIEHFVDPTEKDHPKFQSVADLCLYLYSAKAQVTGQSARKMRLGDAVEQGVINNSVLGYFIGRIYLYLTKVGISPDKLRFRQHMENEMAHYACDCWDAESKTSYGWIEIVGCADRSCYDLSCHARATKVPLVAEKPLKEPKTVNVVQFEPNKGAVGKAYKKDAKLVLEYLSACDECYISEMELLLSEKGEFTIETEGKTFQLTKDMVSVKRFQKTLHVEEVVPSVIEPSFGLGRIMYTILEHTFHVREGDEQRTFFSFPAVVAPFKCSVLPLSQNQEFMPFVKELSEALTRNGVSHKVDDSSGSIGRRYARTDEIGVAFGITIDFDTVNKTPHTATLRDRDSMRQIRAEVSELPNVVRDLANGNITWADVEARYPLFEGQETGKKETVEE
modifications: full-length
B6: P97310 (protein, UniProt P97310 1-904, looked up)
chain: MAESSESLSASSPARQRRRISDPLTSSPGRSSRRADALTSSPGRDLPPFEDESEGLLGTEGPMEEEEDGEELIGDGMERDYRPIPELDVYEAEGLALDDEDVEELTASQREAAERTMRQRDREAGRGLGRMRRGLLYDSSEEDEERPARKRRHVERATEDGEEDEEMIESIENLEDLKGHSVREWVSMAGPRLEIHHRFKNFLRTHVDSHGHNVFKERISDMCKENRESLVVNYEDLAAREHVLAYFLPEAPAELLQIFDEAALEVVLAMYPKYDRITNHIHVRISHLPLVEELRSLRQLHLNQLIRTSGVVTSCTGVLPQLSMVKYNCSKCNFVLGPFCQSQNQEVKPGSCPECQSAGPFEINMEETIYQNYQRIRIQESPGKVAAGRLPRSKDAILLADLVDSCKPGDEIELTGIYHNNYDGSLNTANGFPVFATIILANHVAKKDNKVAVGELTDEDVKMITGLSKDQQIGEKIFASIAPSIYGHEDIKRGLALALFGGEPKNPGGKHKVRGDINVLLCGDPGTAKSQFLKYIEKVSSRAIFTTGQGASAVGLTAYVQRHPVSREWTLEAGALVLADRGVCLIDEFDKMNDQDRTSIHEAMEQQSISISKAGIVTSLQARCTVIAAANPIGGRYDPSLTFSENVDLTEPIISRFDVLCVVRDTVDPVQDEMLARFVVGSHVRHHPSNKKDEGLTNGGTLEPAMPNTYGVEPLPQEVLKKYIIYAKERVRPKLNQMDQDKVARMYSDLRKESMATGSIPITVRHIESMIRMAEAHARMHLRDYVMEDDVNMAIRVMMESFIDTQKFSVMRSMRKTFARYLSFRRDNNDLLLFILKQLVAEQVTYQRNRFGAQQDTIEIPEKDLMDKARQINIHNLSAFYDSDLFKFNKFSRDLKRKLILQQF
modifications: full-length

The molecules below were run on CA19-9 modified proteins (assay: CA19-9 IP/MS (iTRAQ) of organoid conditioned media after Dox treatment). Settings: A217 organoid conditioned media, 0H, 5B1.
Parameters: species or system mouse

First: B1
Second: B2
The “17 0H 5B1 (CA19-9 IP/MS relative abundance)” value of the first is higher: 4.604 for the first, 2.626 for the second.

Going from B3 to B4, the “17 0H 5B1 (CA19-9 IP/MS relative abundance)” value rises from 1.766 to 2.696.

Compared with B5, B6 is lower in “17 0H 5B1 (CA19-9 IP/MS relative abundance)” value: 5.688 for the first, 1.542 for the second.

Same assay, conditions: A217 organoid conditioned media, 0H, NS19-9; every printed value in this column is 1

B1 and B2 are the same in “17 0H NS19 (CA19-9 IP/MS relative abundance)” value: 1 for the first, 1 for the second.

B3 and B4 are the same in “17 0H NS19 (CA19-9 IP/MS relative abundance)” value: 1 for the first, 1 for the second.

B5 and B6 are the same in “17 0H NS19 (CA19-9 IP/MS relative abundance)” value: 1 for the first, 1 for the second.

Same assay, conditions: A217 organoid conditioned media, 8 hours, 5B1

First: B1
Second: B2
The “17 8H 5B1 (CA19-9 IP/MS relative abundance)” value of the first is higher: 4.737 for the first, 1.678 for the second.

Going from B3 to B4, the “17 8H 5B1 (CA19-9 IP/MS relative abundance)” value rises from 1.966 to 3.056.

Compared with B5, B6 is lower in “17 8H 5B1 (CA19-9 IP/MS relative abundance)” value: 5.299 for the first, 1.411 for the second.

Same assay, conditions: A217 organoid conditioned media, 8 hours, NS19-9

Compared with B1, B2 is lower in “17 8H NS19 (CA19-9 IP/MS relative abundance)” value: 0.874 for the first, 0.297 for the second.

Compared with B3, B4 is lower in “17 8H NS19 (CA19-9 IP/MS relative abundance)” value: 1.143 for the first, 0.569 for the second.

Going from B5 to B6, the “17 8H NS19 (CA19-9 IP/MS relative abundance)” value falls from 0.441 to 0.409.

Same assay, conditions: A220 organoid conditioned media, 0H, 5B1

Going from B1 to B2, the “20 0H 5B1 (CA19-9 IP/MS relative abundance)” value falls from 3.735 to 1.306.

Going from B3 to B4, the “20 0H 5B1 (CA19-9 IP/MS relative abundance)” value rises from 1.201 to 2.561.

First: B5
Second: B6
The “20 0H 5B1 (CA19-9 IP/MS relative abundance)” value of the first is higher: 4.688 for the first, 1.777 for the second.

Same assay, conditions: A220 organoid conditioned media, 0H, NS19-9

Going from B1 to B2, the “20 0H NS19 (CA19-9 IP/MS relative abundance)” value falls from 0.799 to 0.113.

First: B3
Second: B4
The “20 0H NS19 (CA19-9 IP/MS relative abundance)” value of the first is higher: 3.037 for the first, 0.412 for the second.

Going from B5 to B6, the “20 0H NS19 (CA19-9 IP/MS relative abundance)” value falls from 1.021 to 0.512.

Same assay, conditions: A220 organoid conditioned media, 8 hours, 5B1

First: B1
Second: B2
The “20 8H 5B1 (CA19-9 IP/MS relative abundance)” value of the first is higher: 4.567 for the first, 1.554 for the second.

Going from B3 to B4, the “20 8H 5B1 (CA19-9 IP/MS relative abundance)” value rises from 1.952 to 3.135.

Going from B5 to B6, the “20 8H 5B1 (CA19-9 IP/MS relative abundance)” value falls from 4.333 to 2.25.

Same assay, conditions: A220 organoid conditioned media, 8 hours, NS19-9

First: B1
Second: B2
The “20 8H NS19 (CA19-9 IP/MS relative abundance)” value of the first is higher: 0.654 for the first, 0.258 for the second.

First: B3
Second: B4
The “20 8H NS19 (CA19-9 IP/MS relative abundance)” value of the first is higher: 0.475 for the first, 0.466 for the second.

First: B5
Second: B6
The “20 8H NS19 (CA19-9 IP/MS relative abundance)” value of the first is higher: 1.066 for the first, 0.44 for the second.
